The shares of active, inactive and inconclusive entries below differ from those in the screen. Rule for the calls: active = hit-call score of the fitted dose curve at least 0.9, where 1 is the maximum; inconclusive = response in the unintended direction; inactive = score below 0.9. Where the call is inconclusive, the potency comes from a doubtful curve fit.
The compounds below were run on frog Androgen Receptor (AR), gene 399456 (assay: ATG_frAR_XSP1: Attagene TRANS-FACTORIAL Multi-Species (XSP1) HepG2 Assay for frog Androgen Receptor (AR) (AID 2283770)).
With COP(=O)(OC)O/C(=C\Cl)c1cc(Cl)c(Cl)cc1Cl the AC50 was inconclusive: 56 µM. With CCN(CC)C(=O)C(C)Oc1cccc2ccccc12 (stereo unspecified) the AC50 was inconclusive: 43.4 µM. For C=CC1(C)OC(=O)N(c2cc(Cl)cc(Cl)c2)C1=O (stereo unspecified), the AC50 was inconclusive: 4.93 µM. With Oc1ccc(Cl)cc1Cc1ccccc1 the AC50 was inconclusive: 4.06 µM. With Clc1ccc(C(c2ccc(Cl)cc2)C(Cl)Cl)cc1 the AC50 was inconclusive: 14.7 µM. With COP(=S)(OC)Oc1ccc([N+](=O)[O-])c(C)c1 the AC50 was inconclusive: 7.03 µM. For CCC[CH2][Sn]([Cl])([CH2]CCC)[CH2]CCC, the AC50 was inconclusive: 0.567 µM. For CCCCCOC(=O)c1ccccc1C(=O)OCCCCC, the AC50 was inconclusive: 100 µM. For CO/C=C(/C(=O)OC)c1ccccc1Oc1cc(Oc2ccccc2C#N)ncn1, the AC50 was inconclusive: 1 µM. For CCCN(CCOc1c(Cl)cc(Cl)cc1Cl)C(=O)n1ccnc1, the AC50 was inconclusive: 20.9 µM. In the case of CC(=O)c1cc2c(cc1C)C(C)(C)C(C)CC2(C)C (stereo unspecified), the AC50 is reported as inconclusive: 27 µM. For ClC(Cl)=C(c1ccc(Cl)cc1)c1ccc(Cl)cc1, the AC50 was inconclusive: 8.36 µM. For O=S1OCC2C(CO1)C1(Cl)C(Cl)=C(Cl)C2(Cl)C1(Cl)Cl (stereo unspecified), the AC50 was inconclusive: 12.5 µM. CC(C)CCCCCCCOC(=O)c1ccccc1C(=O)OCCCCCCCC(C)C was tested, and the AC50 was inconclusive: 100 µM. With CC1(C)C(C=C(Cl)Cl)C1C(=O)OC(C#N)c1ccc(F)c(Oc2ccccc2)c1 (stereo unspecified) the AC50 was inconclusive: 21.5 µM. In the case of CC1(C)C(C=C(Cl)Cl)C1C(=O)OC(C#N)c1cccc(Oc2ccccc2)c1 (stereo unspecified), the AC50 is reported as inconclusive: 100 µM.

Source: PubChem BioAssay (EPA / NIEHS)
